The source of these data is paper PMC11742450, “Engineering a membrane protein chaperone to ameliorate the proteotoxicity of mutant huntingtin” (Nature Communications, 2025).

Protein sequences, listed by entry. Tags and fused reporters are not part of them. Lines headed by an entry give the natural chain unless they say otherwise; changes in a name come on top.
UniProt P42858: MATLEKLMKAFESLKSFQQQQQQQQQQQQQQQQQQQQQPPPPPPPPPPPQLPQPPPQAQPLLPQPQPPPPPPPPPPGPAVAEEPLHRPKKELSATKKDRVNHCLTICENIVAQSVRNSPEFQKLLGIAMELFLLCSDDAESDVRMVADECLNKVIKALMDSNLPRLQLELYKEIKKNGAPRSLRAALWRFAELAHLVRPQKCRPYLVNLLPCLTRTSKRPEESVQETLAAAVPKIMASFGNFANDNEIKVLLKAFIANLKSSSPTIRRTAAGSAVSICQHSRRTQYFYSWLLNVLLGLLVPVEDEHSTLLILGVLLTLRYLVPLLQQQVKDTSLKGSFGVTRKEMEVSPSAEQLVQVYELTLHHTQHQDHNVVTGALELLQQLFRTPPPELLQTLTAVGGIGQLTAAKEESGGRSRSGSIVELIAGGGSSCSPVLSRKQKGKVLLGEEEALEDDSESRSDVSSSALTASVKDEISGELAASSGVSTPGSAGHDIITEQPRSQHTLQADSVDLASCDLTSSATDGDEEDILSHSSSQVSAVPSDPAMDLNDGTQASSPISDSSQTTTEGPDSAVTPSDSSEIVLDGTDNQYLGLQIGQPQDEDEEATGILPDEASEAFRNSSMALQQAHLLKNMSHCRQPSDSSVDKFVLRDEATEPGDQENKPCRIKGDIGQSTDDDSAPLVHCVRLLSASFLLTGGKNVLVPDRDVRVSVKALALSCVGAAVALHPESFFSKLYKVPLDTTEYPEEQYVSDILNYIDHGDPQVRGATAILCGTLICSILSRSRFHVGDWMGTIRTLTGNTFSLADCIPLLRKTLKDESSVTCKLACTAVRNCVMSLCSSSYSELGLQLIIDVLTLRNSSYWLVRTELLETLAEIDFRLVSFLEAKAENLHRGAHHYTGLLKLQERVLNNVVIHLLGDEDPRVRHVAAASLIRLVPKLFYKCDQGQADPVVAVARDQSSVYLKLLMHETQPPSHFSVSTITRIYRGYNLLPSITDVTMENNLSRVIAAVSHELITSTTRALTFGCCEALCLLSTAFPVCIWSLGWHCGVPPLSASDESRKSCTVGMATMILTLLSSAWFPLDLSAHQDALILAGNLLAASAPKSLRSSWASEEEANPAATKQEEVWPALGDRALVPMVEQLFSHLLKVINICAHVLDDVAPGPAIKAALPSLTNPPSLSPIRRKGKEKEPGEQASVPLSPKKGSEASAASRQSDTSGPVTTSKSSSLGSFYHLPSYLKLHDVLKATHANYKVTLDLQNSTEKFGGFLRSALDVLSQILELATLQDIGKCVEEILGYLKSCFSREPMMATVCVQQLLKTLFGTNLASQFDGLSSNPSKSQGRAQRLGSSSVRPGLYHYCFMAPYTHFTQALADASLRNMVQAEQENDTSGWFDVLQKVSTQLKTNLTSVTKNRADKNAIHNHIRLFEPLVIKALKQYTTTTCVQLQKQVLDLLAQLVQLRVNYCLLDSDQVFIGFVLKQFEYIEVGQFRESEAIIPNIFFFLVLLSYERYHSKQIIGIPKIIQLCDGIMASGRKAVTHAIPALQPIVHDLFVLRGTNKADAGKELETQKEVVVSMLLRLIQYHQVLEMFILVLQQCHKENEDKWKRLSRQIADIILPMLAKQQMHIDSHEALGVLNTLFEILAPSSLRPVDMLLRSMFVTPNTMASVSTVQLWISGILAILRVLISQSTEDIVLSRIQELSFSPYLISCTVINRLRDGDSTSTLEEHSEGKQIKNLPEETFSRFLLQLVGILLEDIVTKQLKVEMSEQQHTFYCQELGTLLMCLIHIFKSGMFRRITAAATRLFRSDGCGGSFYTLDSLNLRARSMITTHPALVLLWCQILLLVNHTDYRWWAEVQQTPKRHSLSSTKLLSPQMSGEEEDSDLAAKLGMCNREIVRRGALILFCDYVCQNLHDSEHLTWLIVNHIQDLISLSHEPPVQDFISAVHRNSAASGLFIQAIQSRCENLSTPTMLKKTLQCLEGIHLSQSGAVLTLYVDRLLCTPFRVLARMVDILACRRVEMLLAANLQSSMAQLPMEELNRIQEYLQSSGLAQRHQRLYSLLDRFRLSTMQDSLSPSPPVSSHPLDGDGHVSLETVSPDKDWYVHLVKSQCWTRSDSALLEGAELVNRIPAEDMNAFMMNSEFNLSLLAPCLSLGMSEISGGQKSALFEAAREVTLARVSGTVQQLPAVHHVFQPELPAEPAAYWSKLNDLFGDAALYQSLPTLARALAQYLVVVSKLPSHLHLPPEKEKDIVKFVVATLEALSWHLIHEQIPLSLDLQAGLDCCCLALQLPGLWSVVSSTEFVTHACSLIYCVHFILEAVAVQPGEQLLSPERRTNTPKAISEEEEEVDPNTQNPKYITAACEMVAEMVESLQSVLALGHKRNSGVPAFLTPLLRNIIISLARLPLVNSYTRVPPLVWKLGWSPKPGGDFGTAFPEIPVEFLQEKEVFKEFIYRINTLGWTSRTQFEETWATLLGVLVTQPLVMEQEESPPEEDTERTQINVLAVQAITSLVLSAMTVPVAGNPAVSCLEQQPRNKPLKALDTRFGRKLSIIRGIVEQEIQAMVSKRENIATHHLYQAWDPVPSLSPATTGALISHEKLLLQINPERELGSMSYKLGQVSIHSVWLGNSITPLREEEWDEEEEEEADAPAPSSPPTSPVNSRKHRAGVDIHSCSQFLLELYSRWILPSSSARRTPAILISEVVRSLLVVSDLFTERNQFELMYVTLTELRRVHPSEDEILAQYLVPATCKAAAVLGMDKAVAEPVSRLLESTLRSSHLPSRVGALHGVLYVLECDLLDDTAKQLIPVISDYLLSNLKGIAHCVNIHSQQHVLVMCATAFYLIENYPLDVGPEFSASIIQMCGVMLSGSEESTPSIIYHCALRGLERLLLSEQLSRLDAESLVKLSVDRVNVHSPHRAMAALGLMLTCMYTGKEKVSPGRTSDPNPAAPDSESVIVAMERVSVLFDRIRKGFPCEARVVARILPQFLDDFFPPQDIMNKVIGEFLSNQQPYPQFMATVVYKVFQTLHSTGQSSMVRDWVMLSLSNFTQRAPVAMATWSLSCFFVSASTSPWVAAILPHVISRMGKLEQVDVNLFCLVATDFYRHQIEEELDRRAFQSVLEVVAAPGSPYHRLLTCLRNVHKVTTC

Changes are numbered by the printed parent chain. No constants are given. Whether binding was seen depends on the method and setting. Some binding calls cover weakened binding; strength is not graded here. Where a sequence is shown, tags or fusion partners need not be part of it.

Assay [1] concerns the target T1, His6-hsPEX19-FV^Bpa (human) (UniProt P40855).
T1 sequence (chain, p-benzoyl-L-phenylalanine (Bpa) in place of residue F255): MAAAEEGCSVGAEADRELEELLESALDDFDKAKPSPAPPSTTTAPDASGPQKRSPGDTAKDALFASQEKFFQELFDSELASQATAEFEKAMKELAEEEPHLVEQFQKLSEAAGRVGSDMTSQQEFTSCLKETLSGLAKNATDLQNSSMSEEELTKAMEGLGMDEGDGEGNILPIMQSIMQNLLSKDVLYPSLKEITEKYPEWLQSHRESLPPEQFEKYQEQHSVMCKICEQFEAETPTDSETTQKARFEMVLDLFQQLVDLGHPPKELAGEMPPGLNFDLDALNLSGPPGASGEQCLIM
Put plainly: cross-linking; Bpa photo-cross-linking of hsPEX19^Bpa (Bpa at F255) with MBP-WT, N17-MBP and N17-MBP variants; both purified.

The target in assay [2] is T2, His6-hsPEX19-FI^Bpa (human) (UniProt P40855).
T2 sequence (chain, p-benzoyl-L-phenylalanine (Bpa) in place of residue F255): T1 sequence (chain, p-benzoyl-L-phenylalanine (Bpa) in place of residue F255) with V259I
The assay is described as above.

As to “N17-MBP-His6 (from UniProt P42858 1-17) (domain or fragment)”, the binding entry in assay [1] and in assay [2] was “binds” in each case.
